Some of the results follow. Residues, ends and D or L forms follow the SMILES beside them. *: point of attachment. Cbz = O=C(OCc1ccccc1)*
Experiments:
Test in all cases: log2 fold change, soluble protein after heating vs DMSO (PISA); higher = thermal stabilisation; K562 cells, 10 uM, 30 min; active = over 0.2 and 3.5 SD of the protein, either way, in both replicates (recomputed)
[1] = compound: C1COCCN1CCN2C3=CC=CC=C3N=C2NC(=O)C4=CC(=CC=C4)[N+](=O)[O-] [IRAK-1-4 Inhibitor I]
Outline: (§1)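 K562 cells at 2×10^6 cells/mL were given 10 μM compound for 30 min. Aliquots then went through 3 min of heating across 48°C-58°C, were pooled, and were extracted in PBS with 0.5% NP-40 at 4°C, and the supernatant after 21,000xg for 90 min was quantified by TMTpro 16plex LC-MS/MS with channel sums equalised. Thermal stability relative to control samples, from duplicates, is given as log2 fold change.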

Sequences of proteins named here, by UniProt entry; tags and fusion partners are left off. A change or cut given only in a name is not applied to a line headed by its entry.
UniProt Q8N7X0: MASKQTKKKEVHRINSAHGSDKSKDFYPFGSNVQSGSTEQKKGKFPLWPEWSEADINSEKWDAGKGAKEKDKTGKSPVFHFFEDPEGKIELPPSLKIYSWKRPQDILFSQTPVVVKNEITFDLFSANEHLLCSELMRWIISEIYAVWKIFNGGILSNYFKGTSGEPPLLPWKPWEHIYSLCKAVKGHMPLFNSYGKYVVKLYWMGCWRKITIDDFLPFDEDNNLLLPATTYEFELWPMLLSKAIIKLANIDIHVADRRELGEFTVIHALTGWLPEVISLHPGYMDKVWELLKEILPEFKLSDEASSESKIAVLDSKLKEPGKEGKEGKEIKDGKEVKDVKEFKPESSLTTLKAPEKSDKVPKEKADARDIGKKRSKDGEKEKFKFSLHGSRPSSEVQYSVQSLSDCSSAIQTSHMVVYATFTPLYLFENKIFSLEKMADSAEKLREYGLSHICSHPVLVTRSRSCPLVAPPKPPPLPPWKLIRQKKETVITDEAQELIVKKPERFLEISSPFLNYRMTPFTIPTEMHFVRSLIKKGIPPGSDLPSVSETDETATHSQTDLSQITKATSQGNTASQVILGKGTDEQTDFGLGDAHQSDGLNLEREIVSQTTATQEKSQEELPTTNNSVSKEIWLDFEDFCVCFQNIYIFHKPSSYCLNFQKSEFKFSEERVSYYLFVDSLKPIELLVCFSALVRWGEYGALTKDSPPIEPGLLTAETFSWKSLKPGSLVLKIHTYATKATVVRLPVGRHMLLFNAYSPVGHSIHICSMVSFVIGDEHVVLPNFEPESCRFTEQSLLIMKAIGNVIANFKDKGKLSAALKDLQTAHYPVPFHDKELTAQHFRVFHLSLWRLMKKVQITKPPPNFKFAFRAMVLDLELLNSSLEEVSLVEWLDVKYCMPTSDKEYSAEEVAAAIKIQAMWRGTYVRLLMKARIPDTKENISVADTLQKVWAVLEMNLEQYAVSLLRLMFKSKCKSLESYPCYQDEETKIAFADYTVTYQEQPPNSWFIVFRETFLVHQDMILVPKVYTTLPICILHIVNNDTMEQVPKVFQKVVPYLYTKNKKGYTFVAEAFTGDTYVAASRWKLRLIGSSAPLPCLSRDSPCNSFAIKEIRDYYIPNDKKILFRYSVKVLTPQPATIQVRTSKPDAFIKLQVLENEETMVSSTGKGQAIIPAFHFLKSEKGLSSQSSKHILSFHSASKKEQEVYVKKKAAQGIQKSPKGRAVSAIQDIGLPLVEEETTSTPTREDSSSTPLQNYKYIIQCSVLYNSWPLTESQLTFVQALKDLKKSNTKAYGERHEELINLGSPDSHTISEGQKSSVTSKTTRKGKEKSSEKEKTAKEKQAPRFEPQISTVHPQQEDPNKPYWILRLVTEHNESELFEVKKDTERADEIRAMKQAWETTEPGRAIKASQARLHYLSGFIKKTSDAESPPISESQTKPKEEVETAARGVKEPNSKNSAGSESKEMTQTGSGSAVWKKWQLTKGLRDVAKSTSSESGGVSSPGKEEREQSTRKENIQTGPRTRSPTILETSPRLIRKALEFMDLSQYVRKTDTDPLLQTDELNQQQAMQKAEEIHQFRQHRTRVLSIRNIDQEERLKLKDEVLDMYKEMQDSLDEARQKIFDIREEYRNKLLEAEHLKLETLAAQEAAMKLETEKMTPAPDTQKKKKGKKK
UniProt Q99996, whole entry, looked up: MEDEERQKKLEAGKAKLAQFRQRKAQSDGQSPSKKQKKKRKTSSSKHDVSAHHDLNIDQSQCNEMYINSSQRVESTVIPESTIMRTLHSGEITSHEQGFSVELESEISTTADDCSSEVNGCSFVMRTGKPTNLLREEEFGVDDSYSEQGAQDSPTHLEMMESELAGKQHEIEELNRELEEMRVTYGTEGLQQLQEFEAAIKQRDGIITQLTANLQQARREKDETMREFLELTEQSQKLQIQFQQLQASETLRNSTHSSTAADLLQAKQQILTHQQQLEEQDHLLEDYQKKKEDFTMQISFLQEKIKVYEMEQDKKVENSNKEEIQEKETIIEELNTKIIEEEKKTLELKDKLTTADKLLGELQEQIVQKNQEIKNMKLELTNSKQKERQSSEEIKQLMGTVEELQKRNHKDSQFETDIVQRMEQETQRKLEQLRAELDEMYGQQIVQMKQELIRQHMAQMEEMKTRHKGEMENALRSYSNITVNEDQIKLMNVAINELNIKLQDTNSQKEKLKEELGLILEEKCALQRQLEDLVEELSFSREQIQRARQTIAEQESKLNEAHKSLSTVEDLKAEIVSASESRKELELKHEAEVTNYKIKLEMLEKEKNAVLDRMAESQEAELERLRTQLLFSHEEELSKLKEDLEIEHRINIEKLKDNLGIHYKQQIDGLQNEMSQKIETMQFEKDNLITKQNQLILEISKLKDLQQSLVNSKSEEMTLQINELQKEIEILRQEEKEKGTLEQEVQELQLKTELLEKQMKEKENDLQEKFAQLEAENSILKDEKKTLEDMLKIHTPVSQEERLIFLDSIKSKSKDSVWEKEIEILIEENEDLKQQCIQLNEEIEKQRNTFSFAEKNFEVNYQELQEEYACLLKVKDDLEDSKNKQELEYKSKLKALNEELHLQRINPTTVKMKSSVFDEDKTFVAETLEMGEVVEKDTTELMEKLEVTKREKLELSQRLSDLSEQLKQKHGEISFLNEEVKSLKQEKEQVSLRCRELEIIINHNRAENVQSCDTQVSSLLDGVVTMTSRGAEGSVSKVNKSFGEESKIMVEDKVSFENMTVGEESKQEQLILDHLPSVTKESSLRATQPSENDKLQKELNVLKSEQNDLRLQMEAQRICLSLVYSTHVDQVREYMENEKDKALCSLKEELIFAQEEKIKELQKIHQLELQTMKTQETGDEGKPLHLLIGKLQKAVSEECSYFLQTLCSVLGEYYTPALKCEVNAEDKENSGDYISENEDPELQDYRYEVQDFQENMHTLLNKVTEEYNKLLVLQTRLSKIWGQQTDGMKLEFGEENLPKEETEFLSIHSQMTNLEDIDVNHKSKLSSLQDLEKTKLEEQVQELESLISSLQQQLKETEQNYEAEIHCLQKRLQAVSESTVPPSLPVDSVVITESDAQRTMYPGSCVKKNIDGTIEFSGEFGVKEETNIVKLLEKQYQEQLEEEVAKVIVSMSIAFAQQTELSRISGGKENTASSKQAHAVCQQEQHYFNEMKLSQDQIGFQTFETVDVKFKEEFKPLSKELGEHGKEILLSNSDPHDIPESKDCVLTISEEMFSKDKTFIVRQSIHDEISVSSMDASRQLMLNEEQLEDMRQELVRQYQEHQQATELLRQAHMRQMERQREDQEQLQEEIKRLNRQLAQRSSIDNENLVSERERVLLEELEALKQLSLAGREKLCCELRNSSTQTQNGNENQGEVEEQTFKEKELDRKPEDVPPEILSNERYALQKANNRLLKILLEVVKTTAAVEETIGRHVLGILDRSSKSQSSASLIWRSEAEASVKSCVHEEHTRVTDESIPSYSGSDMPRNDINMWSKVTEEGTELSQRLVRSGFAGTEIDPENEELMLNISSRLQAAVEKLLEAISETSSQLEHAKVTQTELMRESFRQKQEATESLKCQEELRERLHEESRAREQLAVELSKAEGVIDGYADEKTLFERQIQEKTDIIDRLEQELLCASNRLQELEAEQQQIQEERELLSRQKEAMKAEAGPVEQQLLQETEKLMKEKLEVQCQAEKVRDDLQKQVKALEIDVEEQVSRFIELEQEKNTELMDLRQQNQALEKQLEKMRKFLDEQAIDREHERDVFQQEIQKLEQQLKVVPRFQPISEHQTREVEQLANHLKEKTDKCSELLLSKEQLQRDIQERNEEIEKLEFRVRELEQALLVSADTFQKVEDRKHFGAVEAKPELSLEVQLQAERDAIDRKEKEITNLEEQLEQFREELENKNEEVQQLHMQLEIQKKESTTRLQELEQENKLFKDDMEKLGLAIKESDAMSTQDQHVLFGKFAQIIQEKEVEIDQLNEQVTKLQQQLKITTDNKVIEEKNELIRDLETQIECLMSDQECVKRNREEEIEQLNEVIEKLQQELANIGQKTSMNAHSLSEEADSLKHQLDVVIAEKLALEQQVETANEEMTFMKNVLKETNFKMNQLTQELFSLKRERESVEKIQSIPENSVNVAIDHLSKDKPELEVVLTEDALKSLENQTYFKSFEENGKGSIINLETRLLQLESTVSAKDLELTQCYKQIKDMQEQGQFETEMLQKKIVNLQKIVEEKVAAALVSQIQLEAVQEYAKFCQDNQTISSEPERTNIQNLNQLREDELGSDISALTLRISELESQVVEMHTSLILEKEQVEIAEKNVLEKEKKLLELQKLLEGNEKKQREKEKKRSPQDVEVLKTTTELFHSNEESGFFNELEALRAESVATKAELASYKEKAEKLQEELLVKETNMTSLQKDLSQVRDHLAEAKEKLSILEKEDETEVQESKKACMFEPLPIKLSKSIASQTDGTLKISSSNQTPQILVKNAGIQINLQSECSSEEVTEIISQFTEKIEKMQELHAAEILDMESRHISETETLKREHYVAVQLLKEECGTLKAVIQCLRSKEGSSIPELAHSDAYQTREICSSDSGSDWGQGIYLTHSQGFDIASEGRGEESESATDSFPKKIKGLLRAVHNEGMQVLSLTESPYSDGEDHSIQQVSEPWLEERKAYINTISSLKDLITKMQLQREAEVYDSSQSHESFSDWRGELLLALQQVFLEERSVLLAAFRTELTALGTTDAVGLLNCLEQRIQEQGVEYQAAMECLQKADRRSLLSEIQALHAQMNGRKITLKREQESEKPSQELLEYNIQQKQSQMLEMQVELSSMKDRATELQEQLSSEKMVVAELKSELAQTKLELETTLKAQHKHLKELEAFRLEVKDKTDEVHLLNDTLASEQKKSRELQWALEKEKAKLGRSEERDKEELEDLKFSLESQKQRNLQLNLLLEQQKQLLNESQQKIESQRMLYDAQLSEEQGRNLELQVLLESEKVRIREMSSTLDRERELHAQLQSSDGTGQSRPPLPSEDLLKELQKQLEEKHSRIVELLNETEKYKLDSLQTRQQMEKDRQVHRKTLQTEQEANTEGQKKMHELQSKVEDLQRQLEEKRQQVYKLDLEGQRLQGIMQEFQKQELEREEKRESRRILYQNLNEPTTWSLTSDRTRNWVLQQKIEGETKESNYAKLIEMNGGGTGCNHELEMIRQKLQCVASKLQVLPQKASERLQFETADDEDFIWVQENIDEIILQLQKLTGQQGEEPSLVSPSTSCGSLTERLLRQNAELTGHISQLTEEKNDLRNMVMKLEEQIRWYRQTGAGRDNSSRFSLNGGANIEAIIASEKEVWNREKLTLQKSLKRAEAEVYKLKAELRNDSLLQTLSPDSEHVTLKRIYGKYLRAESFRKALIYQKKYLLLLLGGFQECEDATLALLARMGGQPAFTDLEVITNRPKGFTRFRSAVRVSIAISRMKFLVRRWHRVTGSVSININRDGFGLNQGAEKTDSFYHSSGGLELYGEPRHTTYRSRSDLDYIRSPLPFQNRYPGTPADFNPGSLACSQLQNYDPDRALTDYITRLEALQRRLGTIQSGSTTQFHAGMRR
UniProt P05091: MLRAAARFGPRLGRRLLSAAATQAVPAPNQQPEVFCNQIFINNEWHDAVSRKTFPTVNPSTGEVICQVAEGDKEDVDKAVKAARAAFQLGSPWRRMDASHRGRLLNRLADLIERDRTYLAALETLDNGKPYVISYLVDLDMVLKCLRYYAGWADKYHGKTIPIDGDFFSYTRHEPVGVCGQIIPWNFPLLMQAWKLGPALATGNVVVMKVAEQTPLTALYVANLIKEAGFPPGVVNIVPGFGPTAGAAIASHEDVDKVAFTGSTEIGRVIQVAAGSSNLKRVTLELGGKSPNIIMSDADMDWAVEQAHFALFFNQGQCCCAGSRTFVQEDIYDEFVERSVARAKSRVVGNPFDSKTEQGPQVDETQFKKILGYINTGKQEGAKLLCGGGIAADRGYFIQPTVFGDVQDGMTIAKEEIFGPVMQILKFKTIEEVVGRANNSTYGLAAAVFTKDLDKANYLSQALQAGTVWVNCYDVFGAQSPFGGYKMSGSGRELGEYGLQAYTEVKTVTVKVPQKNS
UniProt Q9NVV5: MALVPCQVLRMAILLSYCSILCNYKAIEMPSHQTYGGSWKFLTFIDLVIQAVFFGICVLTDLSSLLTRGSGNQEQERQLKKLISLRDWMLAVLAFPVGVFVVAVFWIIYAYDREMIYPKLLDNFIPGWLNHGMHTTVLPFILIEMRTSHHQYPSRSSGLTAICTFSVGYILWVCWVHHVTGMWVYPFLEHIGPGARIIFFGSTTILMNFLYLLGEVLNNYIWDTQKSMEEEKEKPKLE
UniProt Q9BT30: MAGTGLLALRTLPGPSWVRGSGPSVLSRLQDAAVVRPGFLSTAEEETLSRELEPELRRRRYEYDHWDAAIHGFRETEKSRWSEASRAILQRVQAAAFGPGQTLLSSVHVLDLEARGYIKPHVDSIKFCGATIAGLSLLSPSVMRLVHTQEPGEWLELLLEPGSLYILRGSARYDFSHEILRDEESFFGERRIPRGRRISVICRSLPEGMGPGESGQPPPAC

[2] = compound: C=CC(=O)N1CCC[C@@H](n2nc(-c3ccc(Oc4ccccc4)cc3)c3c(N)ncnc32)C1 [ibrutinib]
Outline: as §1

[3] = compound: CC(=O)c1cnc2ccc(-c3cc(Cl)c(O)c(Cl)c3)nc2c1N[C@H]1CC[C@H](CN(C)C)CC1
Outline: as §1

[4] = compound: CC(C)(O)CC(=O)NCCn1ccc2ncnc(Nc3ccc(Oc4cccc(C(F)(F)F)c4)c(Cl)c3)c21
Outline: as §1

[5] = compound: CC(C)C1=C2N=C(C=C(N2N=C1)NCC3=CC=CC=C3)NCCCCCCN
Outline: as §1

[6] = compound: CC(C)N(C[C@H]1O[C@@H](n2cnc3c(N)ncnc32)[C@H](O)[C@@H]1O)[C@H]1C[C@@H](CCc2nc3cc(C(C)(C)C)ccc3[nH]2)C1 [pinometostat]
Outline: as §1

[7] = compound: CC1=C(C(CC(=O)N1)C2=CC=C(C=C2)C(F)(F)F)C(=O)NC3=C(C=C4C(=C3)C=NN4)F
Outline: as §1

[8] = compound: CC(C)(C)Cn1c(N)nc2ccc(-c3[nH]c(C(C)(C)C)nc3-c3ccc(F)cc3)nc21 [ralimetinib]
Outline: as §1

[9] = compound: CC(C)C[C@@H](C=O)NC(=O)[C@H](CC(C)C)NC(=O)[C@H](CC(C)C)NC(=O)OCc1ccccc1
Outline: as §1

[10] = compound: CC1=C(C2=C(C=C1)C(=O)C3=CC=CC=C3N2CCCN)C
Outline: as §1

Measured: log2 fold change

AFF1 isoform 2 (UniProt P51825)
inactive: [1] -0.17 | [2] -0.009 | [3] 0.027 | [4] 0.036 | [5] 0.183 | [6] 0.161 | [7] 0.158

ADNP (UniProt Q9H2P0)
inactive: [1] -0.051 | [3] -0.233 | [6] 0.008 | [7] 0.01

ALKBH2 (UniProt Q6NS38)
inactive: [1] -0.07 | [2] 0.206 | [3] 0.019 | [8] 0.067 | [4] 0.095 | [9] 0.022 | [6] -0.038 | [7] 0.093 | [10] 0.132

ADD3 isoform 2 (UniProt Q9UEY8)
inactive: [1] 0.008 | [3] -0.433 | [8] -0.015 | [4] 0.005 | [9] 0.009 | [6] 0.108 | [10] -0.063

ALKBH1 (UniProt Q13686)
inactive: [1] 0.041 | [2] 0.001 | [3] -0.214 | [8] 0.162 | [4] -0.021 | [9] 0.014 | [6] 0.015 | [7] -0.004 | [10] 0.06

ADGRD1 isoform 4 (UniProt Q6QNK2)
inactive: [1] -0.16 | [3] -0.107 | [6] -0.099 | [10] 0.203

ALG6 (UniProt Q9Y672)
inactive: [1] -0.035 | [2] -0.086 | [3] -0.05 | [4] -0.047 | [5] -0.038 | [6] -0.001 | [7] 0.001 | [10] 0.149

AMBP (UniProt P02760)
inactive: [1] 0.053 | [2] 0.251 | [5] -0.095 | [6] -0.285

ADGB (UniProt Q8N7X0)
inactive: [1] 0.183 | [4] 0.008 | [6] 0.078

AKAP9 isoform 6 (UniProt Q99996)
inactive: [1] -0.407 | [8] 0.184 | [4] 0.151 | [9] 0.097 | [6] 0.491 | [7] -0.083

AKNA (UniProt Q7Z591)
active: [5] -0.659

AKTIP isoform 2 (UniProt Q9H8T0)
inactive: [2] -0.001 | [4] 0.027

ALDOA (UniProt P04075)
inactive: [2] 0.14 | [3] 0.003 | [8] -0.13 | [5] -0.139 | [9] 0.142 | [7] 0 | [10] 0.085

AGPAT4 (UniProt Q9NRZ5)
inactive: [2] -0.002 | [8] 0.016 | [5] -0.122 | [9] 0.039 | [7] 0.105 | [10] -0.059

AHSP (UniProt Q9NZD4)
inactive: [8] 0.232 | [5] 0.098 | [9] -0.185 | [7] -0.024

AMBRA1 isoform 5 (UniProt Q9C0C7)
inactive: [2] -0.307 | [3] -0.131 | [4] -0.085 | [10] -0.285

AMMECR1 (UniProt Q9Y4X0)
inactive: [3] -0.009 | [8] 0.187 | [4] -0.028 | [5] -0.175 | [9] 0.043

ALMS1 (UniProt Q8TCU4)
inactive: [2] -0.03 | [5] -0.707 | [7] -0.016

AFF4 (UniProt Q9UHB7)
inactive: [2] -0.032 | [3] -0.273 | [4] -0.002 | [5] -0.207

ANAPC13 (UniProt Q9BS18)
inactive: [4] 0.168

AGA (UniProt P20933)
inactive: [2] -0.075 | [5] 0.02

ADIPOR2 (UniProt Q86V24)
inactive: [2] -0.018 | [3] -0.024 | [5] -0.074 | [10] -0.057

ALOX5 (UniProt P09917)
inactive: [10] 0.056

ALDOB (UniProt P05062)
inactive: [4] 0.002

ALDH2 isoform 2 (UniProt P05091)
inactive: [2] -0.1 | [3] -0.133 | [8] -0.18 | [4] 0.029 | [9] 0.063 | [10] 0.087

ANAPC11 (UniProt Q9NYG5)
inactive: [2] 0.025 | [5] -0.117

AMN1 (UniProt Q8IY45)
inactive: [2] -0.012 | [3] -0.163 | [4] -0.09 | [5] 0.022 | [7] -0.082 | [10] -0.008

ADPRM (UniProt Q3LIE5)
inactive: [2] -0.014 | [5] 0.075

ALAS1 (UniProt P13196)
inactive: [2] 0.155 | [3] -0.002 | [4] -0.107 | [5] -0.038

AIG1 (UniProt Q9NVV5)
inactive: [3] -0.273 | [10] 0.214

ALS2 (UniProt Q96Q42)
inactive: [8] 0.034 | [4] -0.308 | [5] 0.025 | [9] -0.013 | [10] 0.001

AMZ2 (UniProt Q86W34)
inactive: [8] 0.223 | [4] 0.006 | [9] 0.004

AMDHD2 (UniProt Q9Y303)
inactive: [5] -0.002 | [10] -0.011

ALKBH7 (UniProt Q9BT30)
inactive: [8] 0.145 | [9] -0.003

ALOX12B (UniProt O75342)
inactive: [2] -0.036 | [3] -0.318 | [8] -0.008 | [9] -0.439 | [10] 0.715

AKR1D1 (UniProt P51857)
inactive: [2] 0.094 | [3] 0.082 | [10] -0.209

ALG13 isoform 2 (UniProt Q9NP73)
inactive: [2] -0.051 | [3] 0.026 | [4] 0.026 | [7] -0.107

ALDH7A1 (UniProt P49419)
inactive: [4] 0.166

Retrieved one by one from the entries so far (three):
AMDHD2 (UniProt Q9Y303)
inactive: [5] -0.002 | [10] -0.011

ALKBH7 (UniProt Q9BT30)
inactive: [8] 0.145 | [9] -0.003

ALDH7A1 (UniProt P49419)
inactive: [4] 0.166

Additional records

AGGF1 (UniProt Q8N302)
inactive: [2] 0.065 | [5] 0.097

AGTRAP isoform 2 (UniProt Q6RW13)
inactive: [5] -0.023 | [10] 0.112

ADD2 isoform 9 (UniProt P35612)
inactive: [2] -0.098 | [8] 0.145 | [9] -0.103

ADCY7 (UniProt P51828)
inactive: [3] -0.037 | [8] -0.034 | [4] -0.076 | [9] 0.075 | [7] -0.254

ALDH9A1 (UniProt P49189)
inactive: [2] -0.008 | [3] -0.024 | [8] -0.077 | [4] 0 | [5] -0.27 | [9] 0.185 | [10] -0.035
